The values that follow come from patent US20250368729A1.

Chains of the proteins cited; added tags and fusions are not shown. Residues count along the entry.
UniProt P05067, residues 672-711: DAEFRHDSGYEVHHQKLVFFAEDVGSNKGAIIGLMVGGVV
UniProt P10997, residues 34-70: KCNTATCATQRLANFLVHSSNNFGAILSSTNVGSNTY

Results are given in words; binding and its absence hold for the method and conditions named. Binding seen in cells or lysates may run through a third protein. Some binding calls cover weakened binding; strength is not graded here.

The target in test [1] is Aβ(1-40) amyloid-like fibrils (UniProt P05067). Kind of test: pulldown of 125I-labelled peptide with the substrate pellet (correlation plot against 125I-Igp5).
A further test has as its target hIAPP fibril (UniProt P10997). Described as above.

On to KAQKAQAKQAKQAQKAQKAQAKQAKQ (125I label) [125I-p5], for which the binding entry (in test [1]; with hIAPP fibril) was “binds” in each case.
